Tested on: GL261 and U87 cells
Assay: MTT cytotoxicity assay in cancer cells
Format: cell-based, mouse; human

## O=C(CCCN1CCC(O)(c2ccc(Cl)cc2)CC1)c1ccc(F)cc1 [H8]
  IC50: 2 to 2.6 µM

Source: US20240122912A1, “A NANOFORMULATION FOR GLIOMA TREATMENT AND PROCESS FOR ITS PREPARATION THEREOF” (COUNCIL OF SCIENTIFIC AND INDUSTRIAL RESEARCH, priority 2021, published 2024)
